Tested on: cells expressing MatB, NphT7, and PhaB
Assay: 19F-NMR analysis of E. coli cells expressing MatB, NphT7 and PhaB fed fluoromalonate
Type: cell-based
Conditions: fluoromalonate (42 mM) added to cell suspension; 19F NMR ERETIC; normalized to total suspension volume

Compared with `CC(O)C(F)C(=O)O` (stereo not drawn) [Fluorohydroxybutyrate], `O=C(O)CF` [Fluoroacetate, reference compound] is 5.5-fold higher in Extracellular concentration: 0.2 mM for the first, 1.1 mM for the second.

Work on Fluoromalonate yielded an Extracellular concentration of 36.9 mM.

Compared with `CC(O)C(F)C(=O)O` (stereo not drawn) [Fluorohydroxybutyrate], `O=C(O)CF` [Fluoroacetate, reference compound] is 2-fold higher in Intracellular concentration: 0.1 mM for the first, 0.2 mM for the second.

Fluoromalonate was tested, and the Intracellular concentration was 0.9 mM.
